# Reference: publication doi:10.1101/2023.11.26.568767
# No constants are given. Whether binding was seen depends on the method and setting. For part of these data: Binding calls can cover weak binding; strength is not graded here.
# B1: G protein γ subunit AGG1 (protein, UniProt Q9FDX9 1-98)
# chain: MREETVVYEQEESVSHGGGKHRILAELARVEQEVAFLEKELKEVENTDIVSTVCEELLSVIEKGPDPLLPLTNGPLNLGWDRWFEGPNGGEGCRCLIL
# B2: G protein γ subunit AGG2 (protein, UniProt Q93V47 1-100)
# chain: MEAGSSNSSGQLSGRVVDTRGKHRIQAELKRLEQEARFLEEELEQLEKMDNASASCKEFLDSVDSKPDPLLPETTGPVNATWDQWFEGPKEAKRCGCSIL
# B3: G protein γ subunit AGG3 (protein, UniProt Q6AWT8 1-251)
# chain: MSAPSGGGEGGGKESAAGGVSSSSLAPSSLPPPRPKSPPEYPDLYGKRREAARVQMLEREIGFLEGEIKFIEGVQPASRCIKEVSDFVVANSDPLIPAQRKSRRSFRFWKWLCGPCLSLVSFCCCCQSKCSCHLRKPKCCNCTSCSCIGSKCCDGSCCSNICCCPRLSCPSCSCFRGCWCSCPDMSCCIPSCFRSCSCTRPSCLNKKKSSCCSCNCKIRWSSCFSCPKVRLCSCCFCNCKNLCSNPCCLAF
# Biological target: GTP BINDING PROTEIN BETA 1 (AGB1), splice isoform AGB1.3 (Arabidopsis thaliana)
# Test: two-hybrid
row,Binder,binding
1,B1,no binding
2,B2,no binding
3,B3,no binding

# Biological target: GTP BINDING PROTEIN BETA 1 (AGB1), splice isoform AGB1.4 (Arabidopsis thaliana)
# Test: two-hybrid
row,Binder,binding
1,B1,binds
2,B2,binds weakly
3,B3,binds
